# Over roughly 33,000 sequences, “E-score (-0.5 to 0.5)” has its median near -0.0034; the highest 2% begin near 0.25. This is one part of the list.
# Target: T1, Yap3 (UniProt P38749)
# T1 sequence: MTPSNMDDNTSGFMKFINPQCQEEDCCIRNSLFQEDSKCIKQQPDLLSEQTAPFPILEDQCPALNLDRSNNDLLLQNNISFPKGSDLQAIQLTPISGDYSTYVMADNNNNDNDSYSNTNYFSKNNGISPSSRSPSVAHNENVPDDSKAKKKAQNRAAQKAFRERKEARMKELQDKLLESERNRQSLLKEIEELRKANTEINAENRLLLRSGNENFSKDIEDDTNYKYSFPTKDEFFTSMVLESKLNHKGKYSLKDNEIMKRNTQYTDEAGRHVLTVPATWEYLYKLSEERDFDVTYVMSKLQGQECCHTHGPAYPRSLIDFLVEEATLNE
# Experiment: PBM E-score (8-mer binding enrichment) (E-score (-0.5 to 0.5)); higher = stronger / more preferred TF binding
# Details: protein concentration: 100 nM; construct: GST-full length
# Description: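 Universal 'all 10-mer' protein binding microarrays (Agilent AMADID 015681) probed with GST-tagged S. cerevisiae TFs (full-length or DBD) made by in vitro transcription/translation (PURExpress), about 100-200 nM. Bound TF was detected with fluorescent anti-GST. Each ungapped 8-mer (which stands for itself and its reverse complement) is scored by the PBM enrichment score (E-score), a modified Wilcoxon-Mann-Whitney statistic from -0.5 to +0.5, computed with the Universal PBM Analysis Suite. Scale: above 0.35 generally sequence-specific binding.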
row,Sequence,PBM E-score
1,ACTGCTAA,-0.0939
2,ATAGTGCA,0.187
3,AGCTCACA,-0.0422
4,CACTAGAC,0.082
5,CGTCTGGA,-0.366
6,ACGAGCGT,-0.135
7,AGATGGGG,-0.171
8,AACTTAGA,0.203
9,AGCCATGC,-0.0338
10,CGAGCGCC,-0.305
11,AGCTGAGG,-0.216
12,CGAGGACC,-0.159
13,CCGGTTCG,-0.145
14,ACACACAA,0.109
15,ACAAAGGT,0.0149
16,ACAAACGT,-0.0781
17,ACCCCTAA,-0.109
18,AGGCCCCA,-0.176
19,CCAACCGA,0.134
20,CTAACGAG,0.0196
21,CCTGAACG,-0.154
22,GATGCAGA,0.0588
23,CTGCCTTA,-0.139
24,ATCGGATA,0.214
25,CACATTGC,0.0928

# 5 records picked at random from those above, as already listed:
row,Sequence,PBM E-score
23,CTGCCTTA,-0.139
14,ACACACAA,0.109
20,CTAACGAG,0.0196
16,ACAAACGT,-0.0781
13,CCGGTTCG,-0.145

# Further results follow:

row,Sequence,PBM E-score
1,CTCGCTCA,0.0266
2,GCATATAA,0.138
3,CTGAGCTC,0.0497
4,CCCTAAAG,-0.275
5,CGGGGAGA,-0.265
6,CACCCTAC,0.0675
7,CTGGCGCC,-0.104
8,CGTGATCC,-0.0468
9,TAAATCCA,0.2
10,GGTTTGAC,-0.126
11,CGTAGAAG,0.0882
12,ATACGTGG,0.0251
13,CTCCGCAG,-0.0033
14,CTTCATTC,0.0779
15,ATATCTGG,0.0384
16,ACTACGAC,-0.00422
17,CGTACCTA,-0.0347
18,CGCAAAAG,-0.107
19,TATTGCAA,0.183
20,CTTAGAGA,-0.0377
21,CTAGAGAA,0.0508
22,AGGGGAAT,0.0443
23,GGAAGCAC,0.0329
24,CATATCCC,0.0923
25,CGACTCAC,-0.092

# As entered above:
# ACTACGAC | PBM E-score: -0.00422
# CGGGGAGA | PBM E-score: -0.265
# AGGGGAAT | PBM E-score: 0.0443
# CTGAGCTC | PBM E-score: 0.0497
# CGTGATCC | PBM E-score: -0.0468
# CTCGCTCA | PBM E-score: 0.0266
# GCATATAA | PBM E-score: 0.138

# Following part

row,Sequence,PBM E-score
1,ATGTAGCA,-0.00878
2,TAAAGTCA,0.137
3,TACCAGGA,0.116
4,AACCTCAG,-0.0261
5,AAGCAAGG,-0.128
6,GAGGATGC,-0.148
7,GATGCCCA,0.0612
8,CAAAAGAC,0.105
9,AGAATCGG,-0.0519
10,CAAGGCCC,-0.322
11,ACTATATG,0.193
12,TTAGTGAA,0.109
13,GGGGGCAC,-0.319
14,GATCTGGC,-0.0239
15,CAGAGCAC,-0.127
16,ATCCGATG,0.0814
17,ATCGGTGG,-0.165
18,ACTAAAGG,0.0113
19,ATTCACAA,0.294
20,CCCCTTCC,-0.277
21,CGCACGCG,-0.163
22,GAATGGGC,-0.1
23,GAGTTGAA,0.0341
24,AATAAATC,0.0738
25,CCTAATCC,0.0254

row,Sequence,PBM E-score
1,AAAAGGCG,-0.0868
2,GATAAGGC,-0.00849
3,AGTGAACT,0.0633
4,GTCCCCTA,-0.132
5,CATACGAA,0.142
6,CTTCCCGC,0.0313
7,AACTGGCT,-0.148
8,ACCCATCA,0.033
9,AGGGCCCA,-0.28
10,CGAAGGCC,-0.256
11,AGAGCGGG,-0.147
12,CGGTACGA,-0.0571
13,CCGATGCG,-0.207
14,GGCTTGGA,-0.166
15,GCGTATCC,-0.174
16,GTGCTTGA,0.0407
17,CGAACACG,0.0256
18,CCCACGCG,-0.158
19,CAAGTGTG,0.0428
20,AAGGGGCT,-0.0651
21,ACCCATTA,0.0959
22,GCCAGTTA,0.0941
23,ACTCCCCG,-0.0599
24,AATTGCCG,0.0202
25,GGCGGACA,-0.0652

row,Sequence,PBM E-score
1,GGTGACCA,-0.15
2,AGTCGTAT,-0.0149
3,CTTAAATA,0.092
4,CGACCCTA,-0.202
5,ATGTACGG,0.0933
6,CTTGTGGA,-0.00226
7,CATGGGAA,0.0137
8,AGGTAGCA,-0.152
9,CGAAGCCG,-0.124
10,ACATGCTA,-0.0453
11,GGTAATAA,0.165
12,AGAGTCAA,-0.2
13,AGCAATAT,0.14
14,CTAATTAC,0.253
15,AAGGAGAC,-0.0315
16,CGCGTTTA,0.068
17,GAGTTAGA,-0.125
18,AATAAAAA,0.27
19,CGAAGTCG,0.189
20,ACCATAGG,-0.183
21,GACAGAGA,0.0536
22,CGACGTCG,0.0993
23,GATTATCA,0.148
24,AGTTGGCG,-0.0355
25,GATGGTAA,0.0531

row,Sequence,PBM E-score
1,GACGTCTA,0.0148
2,ACAACCGG,-0.0836
3,CATTTGCC,-0.129
4,ATACTGTA,0.221
5,TTCTGAAA,0.145
6,CACTTCAA,-0.0165
7,AATGATAC,0.264
8,AGGCGCAC,0.018
9,CGAGTACC,0.126
10,GGAGGTTA,-0.312
11,AGAAGGGA,-0.259
12,ACGGCCGC,-0.0128
13,GGAAGGGA,-0.259
14,CACCTCCC,-0.262
15,CGGTCAGC,-0.0915
16,AAATTAGC,0.0853
17,GTATATCA,0.0881
18,GCCGAGCA,-0.0911
19,AAAGAGGA,-0.019
20,AAACAACT,0.11
21,GGAGACCA,-0.169
22,CCCTGCTC,-0.136
23,CTGCGTGC,-0.121
24,CCGGACGG,-0.263
25,CTCTAGGC,-0.0659

row,Sequence,PBM E-score
1,CCTGAAAC,0.0498
2,CGCCCTTA,-0.152
3,CACTGATC,0.038
4,CTTTACCC,-0.171
5,CATATTCA,0.196
6,AGGGTGAA,-0.0741
7,CGGCATGA,0.162
8,CCTGGAAG,-0.165
9,ACACCGAG,-0.11
10,ACGACATC,-0.101
11,CACTACCC,-0.13
12,ACTGGCGA,-0.116
13,AATGGAAG,0.105
14,CTGCCGAA,-0.184
15,AAAGAGAG,-0.0251
16,ACTAGCGC,0.0683
17,CCCGGAAA,0.0195
18,CAGGATCG,-0.145
19,ACTAATCA,0.255
20,CAATTTCG,0.077
21,AACTGATC,0.0818
22,CCGCAACG,-0.0753
23,ATTATCAA,0.217
24,TCATATCA,0.119
25,CCATCCAC,-0.14

row,Sequence,PBM E-score
1,GTTGGATA,-0.00914
2,ATAGGGTG,-0.123
3,GCGCGTAC,0.0278
4,CAGCCCGG,-0.216
5,AGTCATCC,-0.179
6,CATAAGGA,0.035
7,TCAAGAGA,0.055
8,ATCGCTCC,-0.171
9,AGGCTCTA,-0.142
10,CCCATCGG,-0.221
11,CTCCGACA,-0.095
12,ACTCTTGG,-0.107
13,AAGCCTTG,0.0576
14,ACGTAAGT,0.0805
15,GACTATGC,-0.0131
16,CCTATCCA,-0.0644
17,ACCTTGAA,0.0329
18,CCGGAGCC,-0.209
19,ATACGATA,0.211
20,GCCTGGCC,-0.261
21,ATTTGTCG,0.154
22,ACTATGAC,0.0508
23,AGGGATGC,-0.123
24,AAATTACG,0.172
25,ACGAACTG,-0.0673

row,Sequence,PBM E-score
1,CAAGAGGG,-0.172
2,AACGTATG,0.00682
3,ACCACCCG,-0.199
4,CGGGAGAA,-0.0083
5,AGGAGTTA,0.0833
6,TACGGGAA,-0.125
7,GACCACCC,-0.203
8,TACACGAA,0.143
9,ATCCGTTG,0.0828
10,AGGGCTAT,-0.131
11,ACCTAGTC,-0.144
12,TCACATCA,-0.0112
13,CCTCATGA,-0.0469
14,ATGGATGA,0.0771
15,ATTAATCA,0.287
16,GAACGACC,-0.224
17,CCTGAAGA,0.0543
18,TCATGACA,0.206
19,AAAACCGA,0.00347
